PubChem BioAssay AID1224828, NIAID | 2016
This is a random part of about 17,000 reagents. In the full data, 762 (4.5%) were called active. 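Active calls include both raised and lowered p65 entry, mostly lowered; wells with fewer than 50 cells lack a z-score.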 The raw values are shown without normalisation. Entries without a mark were called inactive.

- Aim: 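Regulators linking TLR4 signalling to p65 nuclear translocation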 (primary screen)
- Cells: mouse RAW264.7 G9 macrophage reporter cells (GFP-p65, Tnf promoter-mCherry)
- Knock-down reagent: siRNA pool against mouse genes, 100 nM
- Time to read-out: 2 days siRNA transfection, then 40 min LPS before fixation
- Challenge: LPS (Salmonella minnesota R595) at 10 ng/ml
- Read-out: 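Imaged p65 nuclear translocation ratio, normalised to the plate median, converted to robust z-scores and averaged across two replicates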
- Direction: p65 translocation robust z-score: higher = more nuclear NF-kappaB p65 after LPS than the plate median; nuclear/cytoplasmic p65 ratio: higher = more nuclear NF-kappaB p65
- Rule for the call: 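Called active when z exceeds 3.3 or falls under -1.56 (median of Tlr4 controls), giving activity score of at least 50; no calls for control wells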
- Meaning of the calls: active = hit (p65 shift raised or lowered); inactive = no clear change

no.	Gene	p65 translocation robust z-score	nuclear/cytoplasmic p65 ratio, rep 1	nuclear/cytoplasmic p65 ratio, rep 2	low cell count flag
1	Retreg1	-0.58	1.28	1.38	enough cells to score
2	Celsr2	-1.3	1.38	1.34	enough cells to score
3	Slc22a7	-0.24	1.37	1.19	enough cells to score
4	Or4x15	-1.65 (active)	1.36	1.18	enough cells to score
5	Oxct2b	0.76	1.5	1.36	enough cells to score
6	Gpr20	-0.08	1.49	1.58	enough cells to score
7	Fbxo46	-0.17	1.34	1.65	enough cells to score
8	Tmed10	-0.46	1.54	1.55	enough cells to score
9	Cfd	-1.27	1.43	1.51	enough cells to score
10	Pmis2		1.19	1.16	fewer than 50 cells per well; well left out of scoring
11	Prr3	-0.4	1.35	1.15	enough cells to score
12	Pgk1	-0.1	1.8	1.26	enough cells to score
13	Vmn1r59	-0.1	1.39	1.2	enough cells to score
14	Riox1		1.28	1.35	fewer than 50 cells per well; well left out of scoring
15	Rbbp8nl		0.997	0.945	fewer than 50 cells per well; well left out of scoring
16	Atp6v0c	-0.44	1.54	1.45	enough cells to score
17	Bub1	-1.59 (active)	1.45	1.17	enough cells to score
18	Qser1	-1.41	1.39	1.42	enough cells to score
19	Yipf5	1.75	1.63	1.7	enough cells to score
20	Fam180a		1.18	1.25	fewer than 50 cells per well; well left out of scoring
21	Mtmr10	-0.77	1.35	1.84	enough cells to score
22	Myh6	0.34	1.38	1.49	enough cells to score
23	Zfp329	1.08	1.32	1.47	enough cells to score
24	Morn2	2.17	2.04	2	enough cells to score
25	Hnf4aos	0.83	1.68	1.54	enough cells to score
26	Pou2af1	-0.48	1.52	1.26	enough cells to score
27	Clec12a	-1.15	1.38	1.87	enough cells to score
28	Ttbk1		1.13	1.21	fewer than 50 cells per well; well left out of scoring
29	Cacng6	-1.14	1.45	1.57	enough cells to score
30	Or52n3		1.45	1.21	fewer than 50 cells per well; well left out of scoring
31	Fuca1	0.3	1.46	1.42	enough cells to score
32	Prkar2a	0.02	1.71	1.36	enough cells to score
33	Dpysl4		1.42	1.24	fewer than 50 cells per well; well left out of scoring
34	Il20		1.3	1.22	fewer than 50 cells per well; well left out of scoring
35	Gtpbp2	-1.88 (active)	1.33	1.3	enough cells to score
36	Vac14	0.52	1.5	1.76	enough cells to score
37	Emc8	-1.55	1.5	1.28	enough cells to score
38	Or4f6	1.97	1.9	1.43	enough cells to score
39	Pura	-0.61	1.54	1.33	enough cells to score
40	Eri3	0.64	1.45	1.3	enough cells to score

Reagents above with an active call (3):
Gene	p65 translocation robust z-score	nuclear/cytoplasmic p65 ratio, rep 1	nuclear/cytoplasmic p65 ratio, rep 2	low cell count flag
Or4x15	-1.65 (active)	1.36	1.18	enough cells to score
Bub1	-1.59 (active)	1.45	1.17	enough cells to score
Gtpbp2	-1.88 (active)	1.33	1.3	enough cells to score
